{
  "source": "paper PMC4357710",
  "about": "“TEFM is a potent stimulator of mitochondrial transcription elongation in vitro” (Nucleic Acids Research, 2015)",
  "target": "T1, TEFM (Homo sapiens) (UniProt Q96QE5)",
  "T1 sequence (looked up)": "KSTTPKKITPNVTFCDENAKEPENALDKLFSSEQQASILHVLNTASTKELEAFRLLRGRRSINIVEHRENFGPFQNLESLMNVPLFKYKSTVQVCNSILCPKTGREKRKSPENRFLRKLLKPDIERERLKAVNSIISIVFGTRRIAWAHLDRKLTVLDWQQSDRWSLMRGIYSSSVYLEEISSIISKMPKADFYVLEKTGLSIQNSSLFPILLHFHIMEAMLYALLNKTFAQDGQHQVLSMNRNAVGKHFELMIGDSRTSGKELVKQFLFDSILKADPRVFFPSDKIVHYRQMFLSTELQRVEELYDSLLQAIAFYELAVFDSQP",
  "assay": "MST",
  "settings": "TEFM titrated to 13.7 uM, very low affinity, binding only above 2000 nM, Kd not calculable; MST: 25 mM Tris-HCl pH 8.0, 100 mM NaCl, 10 mM MgCl2, 10% glycerol, 1 mM DTT, 500 uM ATP, 0.05% Tween-20, 15 nM template, 22 C; recombinant protein; residues 36-360; protein details: N-terminal His6 removed by TEV; label: 5' Alexa488 on DNA; DNA:RNA hybrid",
  "note": "A weaker result is weaker than the reference pair of the same experiment. Protein sequences can lack the tags named with them.",
  "data": [
    {"sequence": "GGGAATGCATGGCGCGGC / UUUUGCCGCGCC [elongation-like DNA:RNA template (18-mer DNA / 12-mer RNA)]", "values": [
      {"measurement": "binding result", "value": "binds more weakly"}
    ]}
  ]
}
